# From article PMC3039813
# No constants are given. Whether binding was seen depends on the method and setting. Binding seen in cells or lysates may run through a third protein. Some entries that bind do so weakly or less than the wild type.
# B1: Noxa, Q13794 1-54 (protein)
# chain: MPGKKARKNAQPSPARAPAELEVECATQLRRFGDKLNFRQKLLNLISKLFCSGT
# Biological target: Mcl-1 (human (endogenous in JVM-2 and Granta 519)), Q07820
# Assay: co-IP; lysates of JVM-2 and Granta 519 cells treated with GUT-70 for 24 h; immunoprecipitation with anti-Mcl-1 (Santa Cruz Biotechnology), western blot for Noxa
# Details: remark: other sources report otherwise
binder,measurement,value
B1,binding,binds
